Source: PMC6822995
No constants are given. Whether binding was seen depends on the method and setting. In cells and extracts the contact can be indirect. Binding calls can cover weak binding; strength is not graded here.

Sequences of proteins named here, by UniProt entry; tags and fusion partners are left off. A change or cut given only in a name is not applied to a line headed by its entry.
UniProt F4JQT1: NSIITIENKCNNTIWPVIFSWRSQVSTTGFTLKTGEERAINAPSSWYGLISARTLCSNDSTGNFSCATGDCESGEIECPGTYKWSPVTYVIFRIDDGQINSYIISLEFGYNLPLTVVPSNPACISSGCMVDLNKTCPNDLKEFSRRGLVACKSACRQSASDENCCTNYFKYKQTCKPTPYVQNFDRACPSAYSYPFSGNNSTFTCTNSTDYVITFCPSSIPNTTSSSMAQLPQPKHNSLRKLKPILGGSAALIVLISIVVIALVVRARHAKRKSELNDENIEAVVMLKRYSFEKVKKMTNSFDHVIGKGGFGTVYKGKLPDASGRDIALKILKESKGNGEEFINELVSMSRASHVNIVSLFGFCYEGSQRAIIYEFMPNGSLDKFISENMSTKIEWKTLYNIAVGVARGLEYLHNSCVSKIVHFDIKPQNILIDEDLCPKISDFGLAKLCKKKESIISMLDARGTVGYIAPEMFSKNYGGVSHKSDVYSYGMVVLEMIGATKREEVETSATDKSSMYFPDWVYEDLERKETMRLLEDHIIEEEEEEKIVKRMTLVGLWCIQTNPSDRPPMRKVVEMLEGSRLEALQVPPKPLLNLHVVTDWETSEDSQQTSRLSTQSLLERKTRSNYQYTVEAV
UniProt O04719: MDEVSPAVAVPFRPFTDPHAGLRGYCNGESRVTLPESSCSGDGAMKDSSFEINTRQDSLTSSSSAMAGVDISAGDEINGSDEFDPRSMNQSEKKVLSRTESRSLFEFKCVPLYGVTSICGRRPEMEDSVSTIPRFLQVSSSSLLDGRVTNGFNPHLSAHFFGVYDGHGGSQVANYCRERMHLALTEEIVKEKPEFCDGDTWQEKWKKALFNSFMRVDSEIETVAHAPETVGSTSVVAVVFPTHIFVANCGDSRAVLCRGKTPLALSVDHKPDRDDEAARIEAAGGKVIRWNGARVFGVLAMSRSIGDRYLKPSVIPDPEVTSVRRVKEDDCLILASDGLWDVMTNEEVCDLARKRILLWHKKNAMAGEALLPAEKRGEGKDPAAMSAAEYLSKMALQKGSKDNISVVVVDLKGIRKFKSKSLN
UniProt P49597: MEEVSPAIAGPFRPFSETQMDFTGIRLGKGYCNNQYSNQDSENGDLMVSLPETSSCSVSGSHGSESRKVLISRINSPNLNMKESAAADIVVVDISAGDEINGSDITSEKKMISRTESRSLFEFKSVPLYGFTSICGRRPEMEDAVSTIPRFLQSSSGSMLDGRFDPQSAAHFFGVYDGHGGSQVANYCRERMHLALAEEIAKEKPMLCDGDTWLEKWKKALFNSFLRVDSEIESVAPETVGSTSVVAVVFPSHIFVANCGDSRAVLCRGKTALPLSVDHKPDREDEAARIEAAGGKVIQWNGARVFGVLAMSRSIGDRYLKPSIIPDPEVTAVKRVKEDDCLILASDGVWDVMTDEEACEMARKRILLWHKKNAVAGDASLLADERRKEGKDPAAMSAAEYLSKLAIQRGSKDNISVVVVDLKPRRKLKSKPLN

Target: AtPR5K2 fused to the N-terminal fragment of Venus (AtPR5K2^VN) (Arabidopsis thaliana) (UniProt F4JQT1)
Experiment: split reporter; BiFC with split Venus (VN on PR5K2, VC on the partner) in Agrobacterium-coinfiltrated N. benthamiana leaves with p19; confocal microscopy of epidermal cells after 48 h at 25°C; also done in the presence or absence of 10 µM exogenous ABA (signals weaker with ABA)

Substance	binding
ABI2 fused to the C-terminal fragment of Venus (ABI2^VC) (from UniProt O04719 1-423) (enzyme)	binds
ABI1 fused to the C-terminal fragment of Venus (ABI1^VC) (from UniProt P49597 1-434) (enzyme)	binds
